Results are given in words; binding and its absence hold for the method and conditions named. Binding can be weak; no strength is given. Sequences can lack the tags named with a protein.

The chains behind the UniProt entries cited, without tags or fusion partners. Where a name states a change or a piece, a line headed by the entry shows the natural chain unless it says otherwise.
UniProt P39214: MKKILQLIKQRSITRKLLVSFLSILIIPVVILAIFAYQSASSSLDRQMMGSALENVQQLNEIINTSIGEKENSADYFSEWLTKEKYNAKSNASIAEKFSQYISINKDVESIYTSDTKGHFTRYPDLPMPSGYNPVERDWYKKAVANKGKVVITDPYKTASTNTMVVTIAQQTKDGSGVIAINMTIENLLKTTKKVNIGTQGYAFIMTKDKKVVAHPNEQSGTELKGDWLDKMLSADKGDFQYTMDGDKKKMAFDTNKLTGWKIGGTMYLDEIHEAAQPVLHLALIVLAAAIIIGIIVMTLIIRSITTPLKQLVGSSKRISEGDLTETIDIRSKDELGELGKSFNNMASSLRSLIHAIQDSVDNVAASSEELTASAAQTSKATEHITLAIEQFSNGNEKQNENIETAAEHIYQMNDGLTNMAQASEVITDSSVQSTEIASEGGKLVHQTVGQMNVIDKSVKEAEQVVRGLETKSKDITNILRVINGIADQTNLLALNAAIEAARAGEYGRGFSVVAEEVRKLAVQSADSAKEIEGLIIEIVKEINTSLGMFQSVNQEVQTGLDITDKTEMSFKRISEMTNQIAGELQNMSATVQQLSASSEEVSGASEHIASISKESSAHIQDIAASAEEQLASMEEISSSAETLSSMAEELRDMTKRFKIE

Our source for the binding values is paper PMC3513319, “The Importance of the Interaction of CheD with CheC and the Chemoreceptors Compared to Its Enzymatic Activity during Chemotaxis in Bacillus subtilis” (PLoS ONE, 2012).

The target in the assay is T1, glutathione-S-transferase-CheD (GST-CheD) (Bacillus subtilis) (UniProt P40404).
T1 sequence: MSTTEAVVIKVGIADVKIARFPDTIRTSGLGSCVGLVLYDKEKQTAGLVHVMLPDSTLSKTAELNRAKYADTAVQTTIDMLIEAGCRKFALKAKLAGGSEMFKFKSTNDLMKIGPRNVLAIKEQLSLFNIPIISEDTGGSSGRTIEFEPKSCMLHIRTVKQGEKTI
Nature of the assay: pull-down; 80 µM GST-CheD or GST-CheD-F102E on glutathione beads; 100 µM CheC or receptor fragment added for 10 min; washed with TBS + 1% Triton X-100; eluted with glutathione; SDS-PAGE, Coomassie stain, densitometry; both purified.

For “C-terminal fragment of McpA (McpAc) (from UniProt P39214) (domain or fragment)”, the binding entry is given as “binds”.
